Experimental data taken from PubChem BioAssay AID638 (SRMLSC, 2007).
Screen size: about 1,300 compounds; about 65 (5%) were called active.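 The calls were made as follows: active = growth inhibition reaching a set limit at one or more tested doses; inactive = the rest.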 The list shows a part of the results. Measured potencies and affinities stand elsewhere.

assay: wild-type E. coli BW25113 antibacterial activity – OD615, dose response (AID 638); conditions: at 100 µM (top of the series) unless noted
How it was run: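 Assay system: E. coli BW25113 wild type. Doses: compound concentration series. Timing: 20 h compound exposure, 37 °C. Technique: OD615 absorbance. Medium: LB broth containing kanamycin at 50 µg/mL. Benchmarks: chloramphenicol at 30 µM final as inhibition control. Measure: IC50 from 4-parameter logistic, bounds fixed 0–100%.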

Growth inhibition, inactive:
O=C(CSc1nnc(Cc2ccccc2)n1Cc1ccco1)NC12CC3CC(CC(C3)C1)C2 3.5%, CC(C)c1ccc(Nc2nc(NCc3ccco3)nc(N3CCOCC3)n2)cc1 -9.82%, CN(Cc1ccccc1)c1nc2c(c(=O)n(C)c(=O)n2C)n1CCCc1ccccc1 -5.76%, Cc1ccc(S(=O)(=O)Nc2cccc(-c3cn4ccsc4n3)c2)cc1 5.41%, CC1CCN(c2nc3ccccc3nc2C(C#N)S(=O)(=O)c2ccccc2)CC1 (configuration not stated) -11.4%, CCOC(=O)c1cccc(NC(=O)Nc2cc(OC)ccc2OC)c1 -6.94%, N#Cc1nc(Cc2ccccc2)oc1NCCc1ccccc1 12.8%, O=C(C1CCN(Cc2cc(Cl)ccc2O)CC1)N1CCN(Cc2ccccc2)CC1 2.23%, Cc1onc(-c2ccccc2Cl)c1C(=O)Nc1sc2c(c1C#N)CCC2 -19.1%, Cc1ccc(SC/C(O)=C(\C#N)c2nc3ccccc3s2)cc1 -13.7%, CC(C)(C)C(=O)Cn1c(=N)n(Cc2ccccc2)c2ccccc21 1.06%, CCOC(=O)c1ccc(Oc2nc(NC(C)(C)C)nc(N(C)C)n2)cc1 7.25%, Cc1ccc(CN2CCSc3ccc(C(=O)N4CCN(c5ncccn5)CC4)cc32)cc1 -1.23%, CCOC(=O)N1CCN(C(=O)COc2ccc(S(=O)(=O)Nc3ccc(OCC)cc3)cc2)CC1 3.01%, Cc1ccc(Cl)cc1N1CCN(C(=O)COc2ccc(S(=O)(=O)NC(C)C)cc2)CC1 -1.24%, CCn1c(SCC(=O)OC2CCCCC2)nc2ccccc2c1=O 2.48%, CCC(Sc1nnnn1-c1ccccc1)C(=O)Nc1nc2ccccc2s1 (configuration not stated) -8.57%, COC(=O)C1=C(N)Oc2cc(C)n(Cc3ccco3)c(=O)c2C1c1cccc(Cl)c1 (configuration not stated) -7.44%, CCc1nnc(NC(=O)c2cccc(C(=O)Nc3nnc(CC)s3)n2)s1 9.58%, Fc1ccc(C(c2ccc(F)cc2)N2CCN(C/C=C/c3ccccc3)CC2)cc1 -4.52%, CCOC(=O)c1cn(CC)c2cc(N3CCCCC3)c(F)cc2c1=O -6.06%, COCCn1nnnc1C(C(C)C)N(Cc1ccccc1)Cc1cc2cc(OC)ccc2[nH]c1=O (configuration not stated) -1.23%, CC(=O)Nc1cccc(NC(=O)CSc2ncc(-c3ccc(Cl)cc3)n2Cc2ccco2)c1 -0.91%, Cc1cc(N2CCN(c3ccccc3)CC2)nc(-n2nc(C)cc2C)n1 6.96%, CCOC(=O)C1Cn2c(nc3c(c2=O)C(C)(CC)Cc2ccccc2-3)S1 (configuration not stated) 4.68%, CSc1nc(-c2ccccc2)nc(N2CCCC2)c1C(C)=O 10.2%, CC1CCCCC1n1c(=S)[nH]c2ccccc2c1=O (configuration not stated) -0.57%, c1ccc(-c2oc3ncnc(NCCN4CCOCC4)c3c2-c2ccccc2)cc1 5.59%, Cc1cccc(-c2noc(CN(C(=O)c3ccc(Br)o3)C(C)C)n2)c1 10.5%, CC1CCCC(C)N1C(=O)CN1CCN(c2nc(-c3ccc(F)cc3)cs2)CC1 (configuration not stated) 9.82%, O=C(CSc1ncnc2c1oc1ccccc12)N1CCCc2ccccc21 8.44%, Oc1c(C(c2ccco2)N2CCN(C(c3ccccc3)c3ccccc3)CC2)sc2ncnn12 (configuration not stated) -1.17%, Cc1nnc(NC(=O)c2ccc(S(=O)(=O)N(C)Cc3ccccc3)cc2)o1 3.95%, COc1cccc(NC(=O)Nc2nnc(N3CCCCC3C)s2)c1 (configuration not stated) 3.87%, N#CC(C#N)=c1ccc2c(c1)N1C3=C(CCCC3)CC3CCCCC31N=2 (configuration not stated) -60.2%, c1ccc2c(c1)CCN(c1nc3cc4c(cc3s1)OCCO4)C2 -2.25%, CN1CCCN(C(=O)Cc2c(Cl)cccc2Cl)c2nc3ccccc3nc21 -8.97%, O=C(c1cccs1)N(Cc1nc2sc3c(c2c(=O)[nH]1)CCCC3)C1CCCC1 -3.89%, COC(=O)c1cc(C(=O)CSc2nc(C)cc(C)n2)ccc1O 5.02%, O=C(Nc1ccn(Cc2ccc(Cl)cc2)n1)c1ccc2c(c1)OCO2 10.1%, CC(C)c1ccc(OCc2ccc(C(=O)N3CCN(c4ccccn4)CC3)cc2)cc1 9.44%, Cc1ccc(C2(c3ccc(C)cc3)NC(=O)N(Cc3c(C)noc3C)C2=O)cc1 2.9%, CCCOc1ccccc1C1CC(=O)Nc2cc3c(cc21)OCCO3 (configuration not stated) 9.22%, C=CCn1cc(C(=O)NCc2ccco2)c(=O)c2cc(S(=O)(=O)N3CCCCCC3)ccc21 -9.96%, CCSc1oc(-c2ccccc2)nc1S(=O)(=O)c1ccccc1 -4.91%, Cc1nn(-c2ccccc2)c(Cl)c1C(=O)Nc1nnc(C2CCCC2)s1 -8.57%, CCC(Oc1ccccc1)C(=O)Nc1nnc(C(F)(F)F)s1 (configuration not stated) -7.51%, COc1ccc(-c2[nH]c(-c3cccc(OC)c3)nc2SCC(=O)NCc2ccco2)cc1 -22%, CC(Oc1ccccc1Br)C(=O)N1CCc2ccccc21 (configuration not stated) 1.62%, CC(C)(C)c1ccc(Cn2nnc3c(=O)[nH]c(C4CCCN(C(=O)Cc5cccs5)C4)nc32)cc1 (configuration not stated) 4.62%, CCc1cccc(NC(=O)c2ccc(NS(=O)(=O)c3c(C)noc3C)cc2)c1 3.02%, Cc1ccc2c(CC(=O)OCc3nc(N)nc(Nc4ccccc4C)n3)coc2c1 1.56%, COc1ccc(C2(O)CC3CCC(C2)N3c2cc(C)nc(-c3ccccc3)n2)cc1 (configuration not stated) -2.16%, CCSC(C)CC1C/C(=N/O)c2c(CC)noc2C1 (configuration not stated) -3.72%, Clc1cccc(NCc2nnc(SCc3ccccc3)o2)c1 5.61%, Cc1ccc(C(=O)N2CCN(c3cccc(Cl)c3)CC2)cc1C 7.44%, CCn1c(=N)n(CC(=O)C23CC4CC(CC(C4)C2)C3)c2ccccc21 0.66%
